Measurements taken from patent US20230312739A1 (BIOTHEUS, published 2023).
These are yes or no findings as the source states them, for the method shown. Some binding calls cover weakened binding; strength is not graded here.

Tests used:
[1] = target: CD73 on cynomolgus macaques CD3+CD8+ T cells (cynomolgus macaques); experiment: flow cytometry on cynomolgus macaque PBMC
[2] = target: CD73 on cynomolgus macaques CD3+CD8+ T cells (cynomolgus macaques); experiment: flow cytometry on cynomolgus macaque PBMC (donor 1132F), gated on CD3+CD8+ T cells, DyLight488 secondary antibody

B1: murine antibody 13D12 (antibody, V domains shown)
VH: DVKLQESGPAMVKPSQSLSLTCTVTGYSITSGYDWHWIRLFPGNKLEWMGYISYSGYTDYSPSLKSRISITHDTSKNHFFLKLHSVTTEDTATYYCTRGDHSYAMDYWGQGTSVTVS
VL: DIVMTQSHKFMSTSVGDRVSITCKASQAVGTAVAWYQQKPGQSPKLLIYWASSRHTGVPDRFTGSRSGTDFTLTISSVQSEDLADYFCQQYSSYPLTFGGGTNLEIK
notes: Mouse monoclonal antibody purified from hybridoma supernatant; also called mouse monoclonal antibody 13D12
binding [1]: binds
binding [2]: binds
